# Patent US9447103B2, “Inauhzin analogues that induce P53, inhibit cell growth, and have antitumor activity” (Indiana University Research and Technology Corp., priority 2012, dated 2016)
# Some results were stated once for a whole list of compounds, not compound by compound. For at least one compound, name, drawing or mass did not settle the structure. Some ranges recur; such a range may be that of the whole group of compounds.
# Tests used:
# p53 = p53 induction by immunoblotting (IB), H460 and/or HCT116^+/+ cells (line not singled out); type: cell-based, human; conditions: synthetic analogs, IB, 0.5, 2, 10 μM, 18 hrs, compared to INZ
# Description: Initial Inauhzin analogs were purchased and tested the activity on H460 and HCT116^p53+/+ by IB.
# This study also investigated the activity of the compounds in cell-based assays for their ability to induce p53 levels in p53 containing human colon cancer HCT116^+/+ cells and/or human lung cancer H460 cells using immunoblotting (IB) (FIG. 1 and FIG. 8). […] Both triazino[5,6-b]indol (G1) and phenothiazine (G2) are essential functional groups for p53 induction. […] Therefore, further attention was focused on the structural modifications of the pharmacologically active core: triazino[5,6-b]indol or phenothiazine. Modifications included extension of carbon chain length on R1 (14) (FIG. 2B), the substitution on the phenothiazine ring (G2) (6-13) (FIG. 2A) or on the triazino[5,6-b]indol ring (G1) (15-36) (FIGS. 2B-2D).
# Cell Culture and Immunoblotting Analysis.
# H1299 = assay: Cell viability assay (3-day WST-8), H1299 (p53 null); conditions: H1299 versus H460
smiles,measurement,setting,value
"CCC(Sc1nnc2c3ccccc3n(C(=O)CCCCC3CC4NC(=O)NC4S3)c2n1)C(=O)N1c2ccccc2Sc2ccccc21 (stereo not drawn) [Compound 20, 5-(5-oxo-5-(3-((1-oxo-1-(10H-phenothiazin-10-yl)butan-2-yl)thio)-5H-[1,2,4]triazino[5,6-b]indol-5-yl)pentyl)tetrahydro-1H-thieno[2,3-d]imidazole-2(5H)-one]",p53 induction / activation,p53,impressive improvement in terms of p53 activation compared to compound 1
"CCC(Sc1nnc2c3ccccc3n(C(=O)CCCCBr)c2n1)C(=O)N1c2ccccc2Sc2ccccc21 (stereo not drawn) [Compound 26, 5-bromo-1-(3-((1-oxo-1-(10H-phenothiazin-10-yl)butan-2-yl)thio)-5H-[1,2,4]triazino[5,6-b]indol-5-yl)pentan-1-one]",p53 induction / activation,p53,impressive improvement in terms of p53 activation compared to compound 1
"C#CCn1c2ccccc2c2nnc(SC(CC)C(=O)N3c4ccccc4Sc4ccccc43)nc21 (stereo not drawn) [Compound 31, 1-(10H-phenothiazin-10-yl)-2-((5(prop-2-yn-1-yl)-5H-[1,2,4]triazino[5,6-b]indol-3-yl)thiol)butan-1-one]",p53 induction / activation,p53,impressive improvement in terms of p53 activation compared to compound 1
"CCOC(=O)CCCC(=O)n1c2ccccc2c2nnc(SC(CC)C(=O)N3c4ccccc4Sc4ccccc43)nc21 (stereo not drawn) [Compound 27, Ethyl 5-oxo-5-(3-((1-oxo-1-(10H-phenothiazin-10-yl)butan-2-yl)thio)-5H-[1,2,4]triazino[5,6-b]indol-5-yl)pentanoate]",p53 induction / activation,p53,impressive improvement in terms of p53 activation compared to compound 1
"C#CCCC(=O)n1c2ccccc2c2nnc(SC(CC)C(=O)N3c4ccccc4Sc4ccccc43)nc21 (stereo not drawn) [Compound 25, 1-(3-((1-oxo-1-(10H-phenothiazin-10-yl)butan-2-yl)thio)-5H-[1,2,4]triazino[5,6-b]indol-5-yl)pent-4-yn-1-one]",p53 induction / activation,p53,impressive improvement in terms of p53 activation compared to compound 1
"CCC(Sc1nnc2c3ccccc3n(C(=O)c3cccnc3)c2n1)C(=O)N1c2ccccc2Sc2ccccc21 (stereo not drawn) [Compound 22, 2-((5-nicotinoyl-5H-[1,2,4]triazino[5,6-b]indol-3-yl)thio)-1-(10H-phenothiazin-10-yl)butan-1-one]",p53 induction / activation,p53,impressive improvement in terms of p53 activation compared to compound 1
"CCC(Sc1nnc2c3ccccc3n(CCO)c2n1)C(=O)N1c2ccccc2Sc2ccccc21 (stereo not drawn) [Compound 30, 2-((5(2-hydroxyethyl)-5H-[1,2,4]triazino[5,6-b]indol-5-yl)thiol)-1-(10H-phenothiazin-10-yl)butan-1-one]",p53 induction / activation,p53,impressive improvement in terms of p53 activation compared to compound 1
same,EC50 on H1299 fold higher than on H460,H1299,3-15 fold
"CCC(Sc1nnc2c3ccccc3n(C(=O)c3ccccc3)c2n1)C(=O)N1c2ccccc2Sc2ccccc21 (stereo not drawn) [Compound 21, 2-((5-benzoyl-5H-[1,2,4]triazino[5,6-b]indol-3-yl)thio)-1-(10H-phenothiazin-10-yl)butan-1-one]",p53 induction / activation,p53,impressive improvement in terms of p53 activation compared to compound 1
"CCC(Sc1nnc2c(n1)[nH]c1ccccc12)C(=O)N1c2ccccc2Cc2ccccc21 (stereo not drawn) [Compound 8, 2-((5H-[1,2,4]triazino[5,6-b]indol-3-yl)thio)-1-(acridin-10(9H)-yl)butan-1-one]",EC50 on H1299 fold higher than on H460,H1299,3-15 fold
"C=CCCC(=O)n1c2ccccc2c2nnc(SC(CC)C(=O)N3c4ccccc4Sc4ccccc43)nc21 (stereo not drawn) [Compound 24, 1-(3-((1-oxo-1-(10H-phenothiazin-10-yl)butan-2-yl)thio)-5H-[1,2,4]triazino[5,6-b]indol-5-yl)pent-4-en-1-one]",p53 induction / activation,p53,impressive improvement in terms of p53 activation compared to compound 1
"CCCCCC(=O)C1(SC(CC)C(=O)N2c3ccccc3Sc3ccccc32)N=c2[nH]c3ccccc3c2=NN1 (stereo not drawn) [Compound 23, 1-(3-((1-oxo-1-(10H-phenothiazin-10-yl)butan-2-yl)thio)-5H-[1,2,4]triazino[5,6-b]indol-3-yl)hexan-1-one]",p53 induction / activation,p53,impressive improvement in terms of p53 activation compared to compound 1
